These are yes or no findings as the source states them, for the method shown. In cells and extracts the contact can be indirect. Some entries that bind do so weakly or less than the wild type.
Columns and labels:
[1] = target: p21CIP1/WAF1 (human (endogenous in MDA-MB-231, SCP2, SUM149, SUM159)) (UniProt P38936); test: co-IP; endogenous p21 immunoprecipitated with anti-p21 antibody overnight at 4°C, protein G-Sepharose, washed four times with lysis buffer (10 mM Tris-HCl pH 7.5, 5 mM EDTA, 150 mM NaCl, 1% Triton X-100); immunoblot with anti-cyclin D1 and anti-p21; MDA, SUM149 and SUM159 cells treated with or without …
[2] = target: cyclin D1 (human (endogenous in MDA-MB-231, SCP2, SUM149, SUM159)) (UniProt P24385); test: co-IP; endogenous cyclin D1 immunoprecipitated with anti-cyclin D1 antibody overnight at 4°C, protein G-Sepharose, washed four times with lysis buffer (10 mM Tris-HCl pH 7.5, 5 mM EDTA, 150 mM NaCl, 1% Triton X-100); Western blot; MDA and SCP2 cells treated with or without 5 ng/ml TGFβ for 6 or 24 hours

Protein sequences, listed by entry. Tags and fused reporters are not part of them.
UniProt P38936: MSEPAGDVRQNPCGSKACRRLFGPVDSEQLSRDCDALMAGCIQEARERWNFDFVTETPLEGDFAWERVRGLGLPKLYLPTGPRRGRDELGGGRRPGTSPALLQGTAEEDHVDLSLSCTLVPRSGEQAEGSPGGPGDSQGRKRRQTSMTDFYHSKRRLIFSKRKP
UniProt P24385: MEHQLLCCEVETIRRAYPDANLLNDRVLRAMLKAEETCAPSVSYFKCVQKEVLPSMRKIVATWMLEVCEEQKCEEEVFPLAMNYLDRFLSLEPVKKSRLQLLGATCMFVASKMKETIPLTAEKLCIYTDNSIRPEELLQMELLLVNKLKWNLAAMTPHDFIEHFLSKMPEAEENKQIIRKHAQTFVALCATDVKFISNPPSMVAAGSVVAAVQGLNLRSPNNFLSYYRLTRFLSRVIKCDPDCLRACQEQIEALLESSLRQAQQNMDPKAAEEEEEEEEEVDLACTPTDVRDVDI

Substance | binding [1] | binding [2]
cyclin D1 (from UniProt P24385 1-295) | binds | 
p21CIP1/WAF1 (from UniProt P38936 1-164) |  | binds

— publication PMC4053239
